From patent publication US20210347912A1 come the findings set out here.

The chains behind the UniProt entries cited, without tags or fusion partners. Where a name states a change or a piece, a line headed by the entry shows the natural chain unless it says otherwise.
UniProt P36222: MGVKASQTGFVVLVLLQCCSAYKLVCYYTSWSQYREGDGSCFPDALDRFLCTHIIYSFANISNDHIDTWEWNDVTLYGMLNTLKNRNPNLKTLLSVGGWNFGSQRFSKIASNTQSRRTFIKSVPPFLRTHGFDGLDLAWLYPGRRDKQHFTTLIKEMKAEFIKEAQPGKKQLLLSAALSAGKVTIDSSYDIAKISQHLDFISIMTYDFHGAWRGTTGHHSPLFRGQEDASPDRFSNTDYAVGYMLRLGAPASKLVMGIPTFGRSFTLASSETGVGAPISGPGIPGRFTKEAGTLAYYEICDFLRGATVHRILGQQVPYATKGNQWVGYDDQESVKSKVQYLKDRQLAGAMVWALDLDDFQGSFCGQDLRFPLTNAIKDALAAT

These are yes or no findings as the source states them, for the method shown. Some binding calls cover weakened binding; strength is not graded here.

First the molecules themselves.
B1: 3F12 predator (VHH)
VHH: EVQLLESGGGLVQPGGSLRLSCAASGFRDSDEDMGWVRQAPGKGLEWVSSINANDGSTYYADSVKGRFTISRDNSKNTLYLQMNSLRAEDTAVYYCASQYDDEFAFDYWGQGTLVTVSS
B2: 4G1 predator (VHH)
VHH: EVQLLESGGGLVQPGGSLRLSCAASGFRDSDEDMGWVRQAPGKGLEWVSSIGDESGSTYYADSVKGRFTISRDNSKNTLYLQNSLRAEDTAVYYCASTSDSYWSFDYWGQGTLVTVSS
B3: 2D7 predator (VHH)
VHH: EVQLLESGGGLVQPGGSLRLSCAASGFRDSDEDMGWVRQAPGKGLEWVSSISGESGSTYYADSVKGRFTISRDNSKNTLYLQMNSLRAEDTAVYYCASVDPLDTYFDYWGQGTLVTVSS
B4: 2H12 predator (VHH)
VHH: EVQLLESGGGLVQPGGSLRLSCAASGFRDSDEDMGWVRQAPGKGLEWVSSINNESGSTYYADSVKGRFTISRDNSKNTLYLQMNSLRAEDTAVYYCASTSYYGFDFDYWGQGTLVTVSS
B5: 2D3 predator (VHH)
VHH: EVQLLESGGGLVQPGGSLRLSCAASGFRDSDEDMGWVRQAPGKGLEWVSSIDAEDGSTYYADSVKGRFTISRDNSKNTLYLQMNSLRAEDTAVYYCASQDGAYYTFDYWGQGTLVTVSS
B6: 4D9 predator (VHH)
VHH: EVQLLESGGGLVQPGGSLRLSCAASGFRDSDEDMGWVRQAPGKGLEWVSSIASDSGSTYYADSVKGRFTISRDNSKNTLYLQMNSLRAEDTAVYYCASSGYAGTVFDYWGQGTLVTVSS
B7: 2F3 predator (VHH)
VHH: EVQLLESGGGLVQPGGSLRLSCAASGFRDSDEDMGWVRQAPGKGLEWVSSIGAGSGSTYYADSVKGRFTISRDNSKNTLYLQMNSLRAEDTAVYYCASSTDARWQFDYWGQGTLVTVSS
B8: 4E10 predator (VHH)
VHH: EVQLLESGGGLVQPGGSLRLSCAASGFRDSDEDMGWVRQAPGKGLEWVSSIYGPSGSTYYADSVKGRFTISRDNSKNTLYLQMNSLRAEDTAVYYCASSDWDGYSFDYWGQGTLVTVSS
B9: 4D5 predator (VHH)
VHH: EVQLLESGGGLVQPGGSLRLSCAASGFRDSDEDMGWVRQAPGKGLEWVSSIGNYNGSTYYADSVKGRFTISRDNSKNTLYLQMNSLRAEDTAVYYCASVSDSGFSFDYWGQGTLVTVSS

This experiment deals with Human YKL-40 also known as Chitinase-3-like protein 1 (CHI3L1) (human) (UniProt P36222). Put plainly: phage ELISA on purified YKL-40 (secondary screening).
For the molecule B1, the binding result is “binds”.
For the molecule B2, the binding entry is given as “binds”.
Under B3 stands “binds”.
Under B4 stands “binds”; under B5, “binds”; under B6, “binds”.
The result for B7 reads “binds”.
B8: the binding entry was “binds”.
The result for B9 reads “binds”.
